PubChem BioAssay AID588590 (National Center for Advancing Translational Sciences (NCATS), 2011)
In all, about 390,000 compounds went through this assay and about 4,000 (1%) were called active. This list was built around the results that the source calls inconclusive (neither active nor inactive); the mix of calls is not that of the screen. The call rests on the fitted dose curve; in most records, active means well fitted inhibition curve with a large enough effect; inconclusive means small, poorly fitted or top-dose-only effect, or another doubt; inactive means no such curve, though single readings can be large or run the other way. A potency beside an inconclusive call is a rough fit, not a confirmed value.

Sequences of proteins named here, by UniProt entry; tags and fusion partners are left off. A change or cut given only in a name is not applied to a line headed by its entry.
UniProt Q9UNA4: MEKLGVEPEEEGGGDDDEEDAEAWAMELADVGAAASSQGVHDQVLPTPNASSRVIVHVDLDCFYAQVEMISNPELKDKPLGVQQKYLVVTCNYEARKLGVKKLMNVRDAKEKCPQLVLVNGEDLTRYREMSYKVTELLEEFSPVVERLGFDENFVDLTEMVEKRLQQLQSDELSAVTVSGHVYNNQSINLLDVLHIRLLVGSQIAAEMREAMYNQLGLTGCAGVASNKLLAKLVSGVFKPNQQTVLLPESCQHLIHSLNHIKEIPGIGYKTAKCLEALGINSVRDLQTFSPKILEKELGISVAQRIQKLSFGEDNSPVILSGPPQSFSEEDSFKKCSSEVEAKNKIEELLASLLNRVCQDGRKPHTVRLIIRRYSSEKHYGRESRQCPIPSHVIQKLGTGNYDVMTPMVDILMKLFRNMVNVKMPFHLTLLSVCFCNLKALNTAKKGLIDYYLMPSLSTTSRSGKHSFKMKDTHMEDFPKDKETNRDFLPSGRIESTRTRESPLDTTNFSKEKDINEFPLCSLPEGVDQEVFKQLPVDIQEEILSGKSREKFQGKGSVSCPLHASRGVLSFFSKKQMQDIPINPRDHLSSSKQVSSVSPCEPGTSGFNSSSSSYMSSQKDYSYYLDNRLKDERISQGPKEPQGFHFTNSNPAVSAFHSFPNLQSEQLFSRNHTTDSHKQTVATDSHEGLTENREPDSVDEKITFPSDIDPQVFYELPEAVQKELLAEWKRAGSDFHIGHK

These compounds were tested against DNA polymerase iota (Homo sapiens) (UniProt Q9UNA4) (assay: qHTS for Inhibitors of Polymerase Iota). Conditions: Pol iota fluorescent replication assay, 10 min; series mostly up to 115 µM.
Summary of the method: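 Fluorescent replication assay read twice, at 0 min and 10 min after adding 50 nM (final) substrate. Enzyme (10 nM) and compounds were first incubated 15 min at room temperature; enzyme-free buffer wells were negative controls.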
Potency means the concentration at half of the fitted maximal effect.

Potency, inconclusive:
O=C(CSc1nnc2scc(-c3ccccc3)n12)Nc1nsc(-c2ccccc2)n1 35.5 µM [inhibitor, single point]
O=C(O)c1ccccc1S(=O)(=O)Cc1ccccc1 39.8 µM [inhibitor, partial curve, poor fit]
COc1ccc(N2C(=O)C3CCCN3C2c2cccc(F)c2)cc1Cl (stereo not given) 39.8 µM [inhibitor, partial curve, poor fit]
N=C1C(c2nc3ccccc3s2)=C(O)CN1NC(=O)c1c[nH]c2ccccc12 50.1 µM [inhibitor, partial curve, poor fit]
COc1ccc(OC)c(CCNC(=O)c2c(C)oc3ncn(C)c(=O)c23)c1 79.4 µM [inhibitor, single point]
COc1ccc(Cl)cc1NC(=O)CSC1=NN2CCCC(=O)N=C2S1 44.7 µM [inhibitor, partial curve]
CCc1c(C)nc2cc(-c3ccc(OC)c(OC)c3)nn2c1N1CCCC1 50.1 µM [inhibitor, single point]
CC(=O)c1cccc(NC(=O)CCNS(=O)(=O)c2cccc3nsnc23)c1 2.51 µM [inhibitor, full curve, poor fit]
O=C(O)c1cc2nc(-c3cccs3)cc(C(F)(F)F)n2n1 28.2 µM [inhibitor, full curve, poor fit]
COc1ccc(C)cc1-n1c(SCC(=O)Nc2cc(C)on2)nc2sc(C)c(C)c2c1=O 5.01 µM [inhibitor, full curve, poor fit]
O=C(O)c1cc(-c2ccc(C(F)(F)F)cc2)nc2n[nH]c(-c3ccccc3)c12 89.1 µM [inhibitor, single point]
CCc1cccc(NC(=O)CCc2nc(-c3cccs3)no2)c1 39.8 µM [inhibitor, single point]
COc1cc(/C=N/Nc2cccc3cccnc23)cc(OC)c1O 25.1 µM [inhibitor, partial curve, poor fit]
CC(=O)C(C(c1ccccc1)N1CCOCC1)N1CCOCC1 (stereo not given) 79.4 µM [inhibitor, single point]
COc1cc(NC(=O)CCc2nnc3ccc(N4CCCCC4)nn23)cc(OC)c1OC 1.78 µM [inhibitor, partial curve, poor fit]
Nc1cc2c(cc1Br)-c1ccc(F)cc1C2=O 56.2 µM [inhibitor, partial curve, poor fit]
COc1ccc(C(=O)Nc2ccc(N3CCCC3)cc2)cc1OC 22.4 µM [inhibitor, full curve, poor fit]
CC(C)N1CC(O)=C(c2ccccc2)C1=N 44.7 µM [inhibitor, partial curve, poor fit]
CCn1c(-c2ccccc2)c(C(=O)CCl)c2ccccc21 63.1 µM [inhibitor, single point]
COc1ccccc1[C@H]1C(c2cccc(C)c2)=NN(c2ccccc2)[C@@H]1CO 0.794 µM [inhibitor, full curve, poor fit]
O=c1c(C(c2ccccc2)c2c(O)nc3n(c2=O)CCCS3)c(O)nc2n1CCCS2 39.8 µM [inhibitor, single point]
CCOC(=O)c1c(C)n(-c2ccccc2)c2ccc(OC(=O)c3ccccc3NC(=O)C(C)(C)C)cc12 100 µM [inhibitor, single point]
COc1cccc(OC)c1C(=O)Nc1ccc(S(=O)(=O)Nc2nccc(C)n2)cc1 25.1 µM [inhibitor, single point]
COc1cc(/C=C2/S/C(=N/S(=O)(=O)c3ccccc3)NC2=O)c([N+](=O)[O-])cc1OC 1.41 µM [inhibitor, full curve, poor fit]
COC(=O)CN1C(=O)[C@H]2[C@@H](C3CC3)N3C(=O)CN(Cc4ccc(-c5ccccc5)cc4)C(=O)[C@@]3(Cc3ccccc3)[C@H]2C1=O 39.8 µM [inhibitor, single point]
O=C(O)c1cc(-c2ccc(/C=N/Nc3ccc([N+](=O)[O-])cn3)o2)ccc1Cl 56.2 µM [inhibitor, partial curve, poor fit]
Cc1c(Cl)cccc1NC(=S)N1CCc2ccccc2C1 44.7 µM [inhibitor, single point]
N=c1n(CCN2CCCCC2)c2ccccc2n1CC(O)c1cccc(Br)c1 (stereo not given) 35.5 µM [inhibitor, single point]
COc1ccc(OC)c(NC(=O)C(C#N)=Cc2ccco2)c1 28.2 µM [inhibitor, single point]
O=C(N/N=C/c1ccc(O)cc1)c1ccc(COc2cc(Cl)ccc2Cl)o1 50.1 µM [inhibitor, partial curve, poor fit]
Cc1cc(C(=O)OCC(=O)c2ccc3c(c2)NC(=O)CO3)c2ccccc2n1 112 µM [inhibitor, single point]
CC(=O)OCCCNc1cc(Sc2ccc(C)cc2)c2nonc2c1[N+](=O)[O-] 89.1 µM [inhibitor, partial curve, poor fit]
C/C(CC(=O)Nc1ccc(Cl)cc1Cl)=N\NC(=O)c1ccncc1 31.6 µM [inhibitor, partial curve, poor fit]
CCN(CC)CCN1C(=O)c2cccc3cc(N)cc(c23)C1=O 63.1 µM [inhibitor, partial curve, poor fit]
Cc1ccc(CNC(=O)C23CN(Cc4ccccc4)CC2C(c2ccc([N+](=O)[O-])cc2)=NO3)o1 (stereo not given) 10 µM [inhibitor, partial curve, poor fit]
CC1CCc2c(C(=O)Nc3ccccn3)csc2C1 (stereo not given) 79.4 µM [inhibitor, partial curve, poor fit]
CCN(CC)c1ccc(NC2CC(=O)N(CCc3ccc(OC)cc3)C2=O)cc1 (stereo not given) 28.2 µM [inhibitor, single point]
O=C(O)COCC(=O)N1CCN(C2c3ccccc3-c3ccccc32)CC1 22.4 µM [inhibitor, single point]
Cc1ccc(OCc2nc(-c3ccccc3)no2)c(C)c1 0.891 µM [inhibitor, partial curve, poor fit]
COc1ccc2c(c1)c1c(c(=O)n(-c3ccccc3C)c(=O)n1Cc1cccc(C(F)(F)F)c1)n2C 100 µM [inhibitor, single point]
CC1(C)Cc2c(sc3ncn4c(=S)[nH]nc4c23)CO1 11.2 µM [inhibitor, full curve, poor fit]
CC(C)c1ccc(CN2CCC(C(=O)NCc3cccnc3)CC2)cc1 15.8 µM [inhibitor, partial curve, poor fit]
CC1=C2C(CCS2(=O)=O)CC2(C1)C(=O)OC(C)(C)OC2=O (stereo not given) 39.8 µM [inhibitor, single point]
Cc1c(Cl)cccc1-c1ccc(CNCCSc2nnnn2-c2ccccc2)o1 25.1 µM [inhibitor, partial curve, poor fit]

Potency, inactive:
COc1cccc2cc(C(=O)N(Cc3cccs3)Cc3cccs3)c(=O)oc12
CCCc1[nH][nH]c(=O)c1C(c1ccccc1)C(C#N)C#N (stereo not given)
Cc1ccccc1Cn1c(CN2CCC(C(=O)NCCN(C)C)CC2)cc2ccccc21
Cc1ccc(CNC(=O)c2nnn(CC(=O)Nc3cccc(C)c3C)c2N)cc1
COc1ccc(Cl)cc1NC(=O)c1ccc2c(c1)CCCN2S(C)(=O)=O
Cc1ccc(N2CC(NC(=O)N3CCN(C(=O)c4ccco4)CC3)CC2=O)cc1 (stereo not given)
c1ccc(C[n+]2csc3ccccc32)cc1
C=CCN=C1NN=C(c2cc(C)n(CCOC)c2C)CS1
N#CC1=C(S)N(c2ccccc2)C(c2ccco2)NC1=O (stereo not given)
CC(=O)c1ccc(NC(=O)Cn2c(=O)n(Cc3ccco3)c(=O)c3sc4ccccc4c32)cc1
CCOc1cccc(C(=O)NC(=S)Nc2ccc(Cl)cc2C(=O)O)c1
O=C(CN1CCC(NC(=O)c2ccccc2F)CC1)Nc1ccc2c(c1)OCCO2
COc1ccc2cc3cc(C(=O)NCCN4CCc5ccccc5C4)sc3nc2c1
C/C=C(/C)C(=O)Nc1cccc(C2=NOC3(C2)C[C@@H](C(N)=O)N(C(=O)[C@H]2CCC(=O)N2)C3)c1 (stereo not given in full)
CCn1cc(CN2CCC(n3nccc3NC(=O)CCOc3ccccc3)CC2)c(C)n1
Cc1ccc(S(=O)(=O)NCC2CCC(C(=O)NCCc3ccccc3)CC2)cc1 (stereo not given)
CCOc1ccc(CNC(=O)c2ccc3c(c2)c(C)c(C)n3Cc2ccccc2)cc1OC
COc1ccc(OC)c(/C=C2\NC(=O)NC2=O)c1
O=C(CN1C(=O)C2(SCC(=O)N2c2cccc(Cl)c2)c2ccccc21)NCCc1ccccc1 (stereo not given)
Cc1ccc(C)c(Cn2c3ccccc3c3cnn(CC(=O)NC(C)CCc4ccccc4)c(=O)c32)c1 (stereo not given)
CS(=O)(=O)Nc1ccc(C2=NN(C(=O)c3ccco3)C(c3ccc(F)cc3)C2)cc1 (stereo not given)

An excerpt from above in order of molar mass, descending:
Potency, inactive:
CCOc1ccc(CNC(=O)c2ccc3c(c2)c(C)c(C)n3Cc2ccccc2)cc1OC
Cc1ccc(S(=O)(=O)NCC2CCC(C(=O)NCCc3ccccc3)CC2)cc1 (stereo not given)
Cc1ccc(N2CC(NC(=O)N3CCN(C(=O)c4ccco4)CC3)CC2=O)cc1 (stereo not given)
